This assay addresses MCPIP1 PIN-D141N (human) (UniProt Q5D1E8). Briefly: native gel or EMSA; increasing amounts of purified protein (0-200 pmol) incubated with 2 pmol in vitro transcribed 3'UTR fragments of C/EBPβ mRNA; 25 mM Tris, 150 mM NaCl, 2.5 mM MgCl2, 2.5 mM DTT, 0.5 mM EDTA, 0.025 mM ZnCl2, pH 8.3; on ice 20 min; 0.8% agarose gel in TAE; oligomers read from heavier protein-RNA complexes; both purified.

Results are given in words; binding and its absence hold for the method and conditions named.

B1: MCPIP1 PIN-D141N (domain or fragment, UniProt Q5D1E8 134-327)
chain: DLRPVVINGSNVAMSHGNKEVFSCRGILLAVNWFLERGHTDITVFVPSWRKEQPRPDVPITDQHILRELEKKKILVFTPSRRVGGKRVVCYDDRFIVKLAYESDGIVVSNDTYRDLQGERQEWKRFIEERLLMYSFVNDKFMPPDDPLGRHGPSLDNFLRKKPLTLEHRKQPCPYGRKCTYGIKCRFFHPERPS
Regarding B1, the binding entry is given as “no binding (tested: 200 pmol)”.

For the origin of these results see publication PMC5362230, “MCPIP1, alias Regnase-1 binds and cleaves mRNA of C/EBPβ” (PLoS ONE, 2017).
